Assay results taken from PubChem BioAssay AID540276 (National Center for Advancing Translational Sciences (NCATS), 2011).
The campaign covered roughly 300,000 compounds. About 5,400 (1.8%) were called active. The inconclusive results got no clear call from the source; some entries with a clear call stand among them for comparison. Calls come from the whole dose curve; tested in HEK293 cells. Potencies of inconclusive entries are doubtful fits and often do not repeat.

Experiment: qHTS for inhibitors of binding or entry into cells for Marburg Virus
Details: Marburg virus pseudotyped entry inhibition, cell reporter; activity change, negative = inhibition: at 37.8 µM (top of the series) unless noted
% is set by controls: 0 for no effect and ±100 for the full control effect; potency is the fitted concentration of half-maximal effect.

SMILES | Potency | activity change, negative = inhibition
O=C(NCC1CCCO1)NC1(C(F)(F)F)Oc2ccccc2O1 (stereo not given) | inconclusive: 1.46 µM [inhibitor, full curve, poor fit] | 
CC(=O)Nc1sc2c(c1CN1CCN(c3ccccn3)CC1)CCCC2 | inconclusive: 25.9 µM [inhibitor, single point] | 
O=C(c1ccccc1F)c1cn(Cc2ccccc2)c2ccccc12 |  | inactive: -6.34%
CC(C)C(NC(=O)COc1ccc2ccccc2c1)C(=O)N/N=C/C=C/c1ccccc1 (stereo not given) | inconclusive: 32.6 µM [inhibitor, single point] | 
O=C(O)/C=C/c1ccc2c(-c3ccccc3)onc2c1 | inconclusive: 3.16 µM [activator, single point] | 
CC(C)(C)C(=O)NCCCc1nc2ccccc2n1CCCOc1ccc(Cl)cc1 | inconclusive: 15.8 µM [inhibitor, partial curve, poor fit] | 
COc1ccc(S(=O)(=O)N(CC(=O)NCc2cccnc2)c2ccc(C)cc2)cc1OC |  | inactive: 0.668%
Cc1ccc(C(=O)/C=C/c2ccc(-c3ccccc3[N+](=O)[O-])o2)cc1 |  | inactive: 3.67%
O=C(Oc1ccc2c3c(c(=O)oc2c1)CCC3)c1ccco1 |  | inactive: 3.71%
CN(C)/C=C1\C(=O)Nc2ccccc21 |  | inactive: 29.3%
C/C(CC(=O)Nc1cccc2c1CCCC2)=N\NC(=O)COc1ccccc1 | inconclusive: 35.5 µM [activator, single point] | 
Cn1nnnc1SCCNCc1ccc(OCc2ccc(Cl)cc2)cc1 |  | inactive: -7.85% [at 46.1 µM]
O=C(Nc1cccc(Cl)c1)C1CCCN1S(=O)(=O)c1cccc2cccnc12 (stereo not given) | inconclusive: 8.91 µM [inhibitor, partial curve, poor fit] | 
O=C(CN1C(=O)NC2(CCCCCC2)C1=O)c1ccc2c(c1)OCCO2 |  | inactive: -15.6% [at 46.1 µM]
Brc1ccc2nc(-c3ccccc3)c(Nc3ccc4c(c3)OCO4)n2c1 |  | inactive: -17.2% [at 46.1 µM]
COc1ccccc1CC(=O)NCCc1c[nH]c2ccccc12 |  | inactive: -23.9% [at 46.1 µM]
COC(=O)c1oc2ccc(Br)cc2c1NC(=O)CCN1CCOCC1 | inconclusive: 7.3 µM [activator, partial curve, poor fit] | 
CCCN(CCC)CCNC(=O)c1cc(-c2ccc(Br)s2)nc2ccccc12 | inconclusive: 1.26 µM [inhibitor, partial curve, poor fit] | 
CCCCNC(=O)C1CCC(CNc2nc(=S)[nH]c3ccccc23)CC1 (stereo not given) |  | inactive: -22.7%
Cc1ccccc1C(=O)Nc1ccc(N2CCCC2)cc1 |  | inactive: 11.4% [at 46.1 µM]
COc1cc(O)c(C(=O)C=Cc2ccccc2)c(O)c1 | inconclusive: 0.106 µM [inhibitor, full curve, poor fit] | 
CCOC(=O)CNc1nc(-c2ccncc2)nc2ccccc12 | active: 11.2 µM | 
Cc1ccc(/C=C2/NC(=O)N(c3ccccc3)C2=O)o1 |  | inactive: 2.61%
Cc1cccc(CCNC(=O)CCc2nc(-c3ccccc3F)no2)c1 | inconclusive: 3.55 µM [activator, single point] | 
Cc1ccsc1C(=O)C1CCCN(Cc2cnn(C)c2)C1 (stereo not given) |  | inactive: 24.4% [at 46.1 µM]

SMILES | Potency | activity change, negative = inhibition
COc1ccc(N2CCN(C(=O)COC(=O)c3cccc(S(=O)(=O)Nc4cccc(C)c4)c3)CC2)cc1 | inconclusive: 35.5 µM [inhibitor, single point] | 
CCc1cccc(NC(=O)C(CC(C)C)NS(=O)(=O)c2ccc3c(c2)oc(=O)n3C)c1 (stereo not given) |  | inactive: -8.54% [at 46.1 µM]
CCOc1cc(NS(=O)(=O)c2ccccc2)c(OCC)cc1NC(=O)c1ccco1 |  | inactive: -14.4%
Nc1nc(-c2ccccc2)cn1/N=C/c1ccccc1 | inconclusive: 11.2 µM [inhibitor, partial curve, poor fit] | 
O=C(N/N=C/c1ccc2c(c1)OCO2)c1ccc(NS(=O)(=O)c2cccs2)cc1 | inconclusive: 0.316 µM [activator, partial curve, poor fit] | 
CC(=O)c1cc(C#N)c(SCc2ccccc2)nc1C | inconclusive: 1.26 µM [activator, single point] | 
Cc1ccc(C(=O)NCCOc2cccc(C)c2)cc1 |  | inactive: 23.5%
CCCSc1nc2c(cnn2-c2ccc(C)cc2)c(=O)[nH]1 |  | inactive: 2.57%
Cc1cc(C)cc(NC(=O)CCn2cnc3cc(C)c(C)cc32)c1 | inconclusive: 3.16 µM [activator, single point] | 
COc1ccc(-c2nc(C=O)cs2)cc1 |  | inactive: 21.9% [at 46.1 µM]
Cc1ccc(C(=O)CSc2nnc(C(C)C)n2C)cc1C | inconclusive: 10 µM [activator, partial curve, poor fit] | 
Cc1cc(C)n(S(=O)(=O)c2ccccc2)n1 |  | inactive: 2.09% [at 46.1 µM]
COc1cc(-c2nc(S(=O)(=O)c3ccc(C)cc3)c(N(C)C)o2)cc(OC)c1OC | inactive | 
COC(=O)N1c2ccccc2C=Cc2ccccc21 | inconclusive: 35.5 µM [inhibitor, single point] | 
Cc1ccc(-n2cnn(-c3ccc([N+](=O)[O-])cc3[N+](=O)[O-])c2=O)cc1 | inconclusive: 22.4 µM [inhibitor, single point] | 
COc1cccc(N(CC(=O)NCCSc2ccccn2)S(=O)(=O)c2ccccc2)c1 | inconclusive: 10 µM [inhibitor, partial curve, poor fit] | 
Cc1cc(OCC(=O)NCC2(N3CCOCC3)CCCCC2)ccc1Cl | inconclusive: 6.31 µM [activator, single point] | 
CCc1noc(-c2ccc(N3CCCCC3)c([N+](=O)[O-])c2)n1 |  | inactive: -9.2% [at 46.1 µM]
CCCn1c(N)c(C(=O)CSc2n[nH]c(-c3ccc(C)cc3)n2)c(=O)[nH]c1=O | inconclusive: 35.5 µM [inhibitor, single point] | 
Cn1cccc1-c1nc2ccc([N+](=O)[O-])cc2[nH]1 | inconclusive: 5.62 µM [activator, single point] | 
COC(=O)C1CCCCN1C(=O)c1ccc(OC2CCN(C(C)=O)CC2)c(OC)c1 (stereo not given) |  | inactive: 7.23%
CN(C(=O)c1ccc(NC(=O)Cc2ccccc2)cc1)c1ccccc1 |  | inactive: 25.8%
CC(C)(C)c1ccc(NC(=O)CSc2nnc(-c3n[nH]c4ccccc34)o2)cc1 | inconclusive: 35.5 µM [inhibitor, single point] | 
CCN(C(=O)COC(=O)c1cccc(C)c1[N+](=O)[O-])c1c(N)n(Cc2ccccc2)c(=O)[nH]c1=O | inconclusive: 3.16 µM [inhibitor, partial curve, poor fit] | 
Clc1ccccc1CN1CCN(CCCc2ccccc2)CC1 | inconclusive: 35.5 µM [inhibitor, single point] | 

Exported as tab-separated lines: part of the list above
SMILES	Potency	activity change, negative = inhibition
CCOc1cc(NS(=O)(=O)c2ccccc2)c(OCC)cc1NC(=O)c1ccco1		inactive: -14.4%
Nc1nc(-c2ccccc2)cn1/N=C/c1ccccc1	inconclusive: 11.2 µM [inhibitor, partial curve, poor fit]	
O=C(N/N=C/c1ccc2c(c1)OCO2)c1ccc(NS(=O)(=O)c2cccs2)cc1	inconclusive: 0.316 µM [activator, partial curve, poor fit]	
CC(=O)c1cc(C#N)c(SCc2ccccc2)nc1C	inconclusive: 1.26 µM [activator, single point]	
Cc1ccc(C(=O)NCCOc2cccc(C)c2)cc1		inactive: 23.5%
CCCSc1nc2c(cnn2-c2ccc(C)cc2)c(=O)[nH]1		inactive: 2.57%
Cc1cc(C)cc(NC(=O)CCn2cnc3cc(C)c(C)cc32)c1	inconclusive: 3.16 µM [activator, single point]	
COc1ccc(-c2nc(C=O)cs2)cc1		inactive: 21.9% [at 46.1 µM]
Cc1ccc(C(=O)CSc2nnc(C(C)C)n2C)cc1C	inconclusive: 10 µM [activator, partial curve, poor fit]	
Cc1cc(C)n(S(=O)(=O)c2ccccc2)n1		inactive: 2.09% [at 46.1 µM]
COc1cc(-c2nc(S(=O)(=O)c3ccc(C)cc3)c(N(C)C)o2)cc(OC)c1OC	inactive	
COC(=O)N1c2ccccc2C=Cc2ccccc21	inconclusive: 35.5 µM [inhibitor, single point]	
Cc1ccc(-n2cnn(-c3ccc([N+](=O)[O-])cc3[N+](=O)[O-])c2=O)cc1	inconclusive: 22.4 µM [inhibitor, single point]	
COc1cccc(N(CC(=O)NCCSc2ccccn2)S(=O)(=O)c2ccccc2)c1	inconclusive: 10 µM [inhibitor, partial curve, poor fit]	

Carrying on.

SMILES | Potency | activity change, negative = inhibition
Cc1ccn2c(Nc3ccc4c(c3)OCCO4)c(-c3ccc(C)s3)nc2c1 |  | inconclusive: 83.2% [activator] [at 46.1 µM]
NC(CSCc1ccccc1Cl)C(=O)O (stereo not given) | inconclusive: 4.11 µM [inhibitor, full curve, poor fit] | 
C=CCn1cnc2c(nnn2-c2ccc(Cl)cc2)c1=O |  | inactive: 2.2%
COc1ccc(Oc2nc(C)nc3c2oc2ccccc23)cc1 | inconclusive: 29.1 µM [inhibitor, single point] | 
OC(CN1CCN(c2ccccc2F)CC1)c1ccc(F)cc1 (stereo not given) |  | inactive: 11% [at 46.1 µM]
COc1ccccc1/C=N/OCc1cc(C(C)=O)ccc1OC | inconclusive: 1 µM [inhibitor, partial curve, poor fit] | 
CCOC(=O)C1CCCN(C(=O)c2cnn3c(C(F)F)cc(-c4ccc(C)cc4)nc23)C1 (stereo not given) | inconclusive: 25.1 µM [inhibitor, single point] | 
COc1ccccc1-c1cnn2c(N3CCOCC3)cc(C)nc12 | inconclusive: 1.58 µM [activator, partial curve, poor fit] | 
Cc1ccc(C(=O)NCC(C)(C)N2CCOCC2)s1 |  | inactive: 9.32%
Cc1cc(C)n(C(=O)CNc2ccccc2Cl)n1 |  | inactive: 6.45%
O=C(C[n+]1ccc(-c2nnc3n2CCC3)cc1)c1ccc(Cl)cc1 |  | inactive: -6.86%
CCCn1c(N)c(N(C)C)c(=O)n(CC(=O)Nc2ccc(OC(F)(F)F)cc2)c1=O |  | inactive: -29.4% [at 46.1 µM]
C=CCOC(=O)c1ccccc1C(=O)OCC1CO1 (stereo not given) | inconclusive: 35.5 µM [inhibitor, single point] | 
CCS(=O)(=O)N1CCN(c2ccc([N+](=O)[O-])c(NC(C)c3ccccc3)c2)CC1 (stereo not given) | inconclusive: 17.8 µM [inhibitor, single point] | 
CC(C)OC(=O)CSc1nnc(-c2ccccc2)n1N |  | inactive: -1.46%
O=C(/C=C/c1cccc(F)c1)c1ccc(N2CCOCC2)cc1 | inconclusive: 35.5 µM [inhibitor, single point] | 
CC(NC(=O)c1ccccc1)C(=O)OCC(=O)Nc1cccc(S(=O)(=O)N2CCCC2)c1 (stereo not given) |  | inactive: -30.3%
COc1cc(C(=O)Nc2ccc3c(c2)OCCO3)ccc1-n1cnnn1 | inconclusive: 29.1 µM [activator, single point] | 
O=C(NCCc1c[nH]c2ccccc12)Nc1cccc2ccccc12 | inconclusive: 12.6 µM [inhibitor, partial curve, poor fit] | 
CN(C)CCCN(C(=O)CCc1ccccc1)c1nc2c(F)cccc2s1 | inconclusive: 20 µM [inhibitor, single point] | 
COc1ccccc1NC(=O)Nc1nnc(C(C)C)s1 | inconclusive: 7.08 µM [activator, partial curve, poor fit] | 
CCCCn1c(/N=C/c2ccccc2NS(=O)(=O)c2ccc(C)cc2)nc2ccccc21 | inconclusive: 22.4 µM [inhibitor, single point] | 
Cc1cccc(N2CCN(c3c4c(nc5nncn35)CCC4)CC2)c1C |  | inactive: -5.91% [at 46.1 µM]
Cc1cccc(N2CCN(CC(O)COc3ccccc3)CC2)c1 (stereo not given) | inconclusive: 6.31 µM [activator, single point] | 
O=C(Nc1ccc2c(c1)C(=O)N(c1ccccc1)C2=O)C1CCCO1 (stereo not given) |  | inactive: 13.6%
